Assay results from patent US20210170002A1, “SLC45A2 PEPTIDES FOR IMMUNOTHERAPY” (Board of Regents, The University of Texas System, priority 2015, published 2021).
For part of these data: For at least one compound, name, drawing or mass did not settle the structure. Some results were stated once for a whole list of compounds, not compound by compound.

Legend:
[1] = system: mRNA expression of SLC45A2 and MART-1; assay: RT-PCR of SLC45A2 and MART-1 mRNA after MAPK pathway inhibitor treatment; type: cell-based, human; conditions: 50 nM, 48 hours
Description: Real time PCR was done with primers of SLC45A2, MART-1, gp100, and tyrosinase using power syber green PCR master mix (Applied biosystems life technologies). Values were normalized by the amount of the gene encoding GAPDH.
Mel526 and A375 (BRAF V600E+) and MeWo (BRAF wild type) were treated with BRAF V600E inhibitor, dabrafenib (50 nM), or MEK inhibitor, Trametinib (50 nM) (GlaxoSmithKline) or both for 48 hours. Untreated melanomas were used as control.
Like other melanocyte differentiation proteins such as MART-1, gp100 and tyrosinase, the SLC45A2 gene is regulated by the MITF transcription factor (J Biol Chem, 2002, 277:402-406, Gen Soci Ame, 2008 178:761-769). MITF protein levels are suppressed by oncogenic BRAF through ERK-mediated phosphorylation and degradation (J Cell Biol, 2005, 170:703-708). Thus, it was next investigated whether BRAF or MEK inhibitors can modulate SLC45A2 expression. Melanoma cells were treated with a specific inhibitor of BRAF V600E, dabrafenib (50 nM), or a MEK inhibitor, Trametinib (50 nM), or both for 48 hours and mRNA expression of SLC45A2 and MART-1 was analyzed by RT-PCR. […] To assess the killing effect of SCL45A2-specific CD8 T cells against melanoma cells after treatment with BRAF and MEK inhibitors, a ^51Cr release assay was performed in melanoma cells treated with a BRAF inhibitor, a MEK inhibitor or both for 48 hours.

[2] = system: HLA-A*0201 or A*2402 positive PBMCs; assay: Induction of SLC45A2-tetramer-positive CD8 T cells by peptide-pulsed dendritic cells; type: cell-based, human; conditions: after secondary stimulation with peptide-pulsed DC treated with IL-21

Row | Compound | mRNA expression of SLC45A2 and MART-1 ([1]; MeWo cells (wild type BRAF)) | mRNA expression of SLC45A2 and MART-1 ([1]; Mel526 cells (BRAF V600E)) | frequency of SLC45A2-tetramer-positive CD8 T cells, CD8-gated population [2] | frequency of SLC45A2-tetramer-positive CD8 T cells, lymphocyte-gated population [2]
1 | CC(=O)Nc1cccc(-n2c(=O)n(C3CC3)c(=O)c3c(Nc4ccc(I)cc4F)n(C)c(=O)c(C)c32)c1 [Trametinib] | did not show an increased expression | significant increase |  | 
2 | SLYSYFQKV [HLA-A*0201 restricted SLC45A2-derived peptide, position 382-390] |  |  | 6.68-30% | 2-25%
3 | SYIGLKGLYF [HLA-A*2402 restricted SLC45A2-derived peptide, position 393-402] |  |  | 6.68-30% | 2-25%
